Values from PubChem BioAssay AID1259405 (NCATS, 2018).

- Aim: 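Knock-downs that lift recombinant protein yield in hamster ovary cells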 (primary screen)
- Cell system: Chinese hamster CHO-K1 ovary cells with stable secreted eGFP expression
- Reagents: single siRNA against mouse genes, 0.8 pmol siRNA per well (2 µl of 400 nM stock)
- Duration: 3 days
- Detection: 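Per-well intracellular GFP measured by laser scanning cytometry, plus viability from ATP luminescence, each relative to plate median of non-targeting control wells, in %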
- Reading the numbers: GFP, % of control: higher = more GFP per well, higher productivity; viability (ATP), % of control: higher = more viable cells (more ATP)
- Rule for the call: 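a knock-down is called active if GFP reaches 120% or more of non-targeting control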
The deposit covers about 50,000 reagents; this is an unselected part. About 4,000 of them (8%) were called active. 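Mouse siRNA library applied to hamster cells; one well for each siRNA.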 Reagents against one gene are numbered here.

| gene | reagent | GFP, % of control | viability (ATP), % of control | Call |
| --- | --- | --- | --- | --- |
| Pdpn (podoplanin) | 1 | 74.7 | 89 | inactive |
| Pdpn (podoplanin) | 2 | 36.8 | 30.2 | inactive |
| Pdpn (podoplanin) | 3 | 85.8 | 87.9 | inactive |
| Prodh (proline dehydrogenase) | 1 | 104 | 70 | inactive |
| Prodh (proline dehydrogenase) | 2 | 81.9 | 54.2 | inactive |
| Prodh (proline dehydrogenase) | 3 | 91.2 | 77.8 | inactive |
| Arl8a (ADP-ribosylation factor-like 8A) | 1 | 90.7 | 60.8 | inactive |
| Arl8a (ADP-ribosylation factor-like 8A) | 2 | 52.6 | 66.9 | inactive |
| Arl8a (ADP-ribosylation factor-like 8A) | 3 | 64.2 | 44.3 | inactive |
| Kif21b (kinesin family member 21B) | 1 | 53.5 | 59.9 | inactive |
| Kif21b (kinesin family member 21B) | 2 | 111 | 97 | inactive |
| Kif21b (kinesin family member 21B) | 3 | 114 | 79.9 | inactive |
| Rnf212 (ring finger protein 212) | 1 | 65.7 | 69.3 | inactive |
| Rnf212 (ring finger protein 212) | 2 | 96.4 | 86.5 | inactive |
| Rnf212 (ring finger protein 212) | 3 | 100 | 65.3 | inactive |
| Evi2a (ecotropic viral integration site 2a) | 1 | 45 | 68.3 | inactive |
| Evi2a (ecotropic viral integration site 2a) | 2 | 90.1 | 75.8 | inactive |
| Evi2a (ecotropic viral integration site 2a) | 3 | 79.8 | 82.3 | inactive |
| Mettl15 (methyltransferase like 15) | 1 | 96.5 | 61.4 | inactive |
| Mettl15 (methyltransferase like 15) | 2 | 62.8 | 64 | inactive |
| Mettl15 (methyltransferase like 15) | 3 | 35.5 | 54.3 | inactive |
| Unc50 (unc-50 homolog) | 1 | 70 | 77.6 | inactive |
| Unc50 (unc-50 homolog) | 2 | 70.9 | 45.1 | inactive |
| Unc50 (unc-50 homolog) | 3 | 79.1 | 94.5 | inactive |
| Ctsa (cathepsin A) | 1 | 107 | 114 | inactive |
| Ctsa (cathepsin A) | 2 | 77 | 80.6 | inactive |
| Ctsa (cathepsin A) | 3 | 99.5 | 52.8 | inactive |
| Pdcd6 (programmed cell death 6) | 1 | 63.4 | 73 | inactive |
| Pdcd6 (programmed cell death 6) | 2 | 35.1 | 40.9 | inactive |
| Or8c15 (olfactory receptor family 8 subfamily C member 15) | 1 | 78.3 | 85.4 | inactive |
| Or8c15 (olfactory receptor family 8 subfamily C member 15) | 2 | 88.6 | 86.1 | inactive |
| Or8c15 (olfactory receptor family 8 subfamily C member 15) | 3 | 100 | 88.3 | inactive |
| Surf1 (surfeit gene 1) | 1 | 40.5 | 46.8 | inactive |
| Surf1 (surfeit gene 1) | 2 | 93.6 | 70.6 | inactive |
| Surf1 (surfeit gene 1) | 3 | 59.4 | 93.7 | inactive |
| Trim39 (tripartite motif-containing 39) | 1 | 65.8 | 59.1 | inactive |
| Trim39 (tripartite motif-containing 39) | 2 | 105 | 85.4 | inactive |
| Trim39 (tripartite motif-containing 39) | 3 | 110 | 137 | inactive |
| Kcnab2 | 1 | 84.8 | 71.3 | inactive |
| Kcnab2 | 2 | 62.5 | 50.1 | inactive |
| Kcnab2 | 3 | 31.7 | 41.3 | inactive |
| Sfswap (splicing factor SWAP) | 1 | 87.3 | 76.2 | inactive |
| Sfswap (splicing factor SWAP) | 2 | 78.4 | 45.6 | inactive |
| Sfswap (splicing factor SWAP) | 3 | 49.5 | 56.4 | inactive |
| Prl8a8 (prolactin family 8, subfamily a, member 81) | 1 | 81 | 82.9 | inactive |
| Prl8a8 (prolactin family 8, subfamily a, member 81) | 2 | 66.9 | 65.7 | inactive |
| Prl8a8 (prolactin family 8, subfamily a, member 81) | 3 | 51.2 | 70.9 | inactive |
| Slc38a2 | 1 | 94 | 113 | inactive |
| Slc38a2 | 2 | 125 | 81.4 | active |
| Mcub | 1 | 85.1 | 80.6 | inactive |
| Mcub | 2 | 74.3 | 63 | inactive |
| Mcub | 3 | 91.9 | 114 | inactive |
| Miox (myo-inositol oxygenase) | 1 | 60.9 | 80.9 | inactive |
| Miox (myo-inositol oxygenase) | 2 | 122 | 97.9 | active |
| Miox (myo-inositol oxygenase) | 3 | 32.2 | 47.7 | inactive |
| Rasgrp1 (RAS guanyl releasing protein 1) | 1 | 84.7 | 84.4 | inactive |
| Rasgrp1 (RAS guanyl releasing protein 1) | 2 | 78.9 | 61.4 | inactive |
| Rasgrp1 (RAS guanyl releasing protein 1) | 3 | 68.3 | 68.1 | inactive |
| Ccm2l (cerebral cavernous malformation 2-like) | 1 | 40.1 | 58.5 | inactive |
| Ccm2l (cerebral cavernous malformation 2-like) | 2 | 62.9 | 75.1 | inactive |
| Ccm2l (cerebral cavernous malformation 2-like) | 3 | 105 | 103 | inactive |
| Anks6 (ankyrin repeat and sterile alpha motif domain containing 6) | 1 | 64.8 | 63.5 | inactive |
| Anks6 (ankyrin repeat and sterile alpha motif domain containing 6) | 2 | 91 | 116 | inactive |
| Anks6 (ankyrin repeat and sterile alpha motif domain containing 6) | 3 | 48.9 | 78 | inactive |
| Erc2 (ELKS/RAB6-interacting/CAST family member 2) | 1 | 98.2 | 97.5 | inactive |
| Erc2 (ELKS/RAB6-interacting/CAST family member 2) | 2 | 73.7 | 59.9 | inactive |
| Erc2 (ELKS/RAB6-interacting/CAST family member 2) | 3 | 89.4 | 87.9 | inactive |
| Kcnrg (potassium channel regulator) | 1 | 75.3 | 74.7 | inactive |
| Kcnrg (potassium channel regulator) | 2 | 102 | 64.6 | inactive |
| Kcnrg (potassium channel regulator) | 3 | 60.6 | 75.6 | inactive |
| Frmpd3 (FERM and PDZ domain containing 3) | 1 | 75.6 | 46.4 | inactive |
| Frmpd3 (FERM and PDZ domain containing 3) | 2 | 69.1 | 75.2 | inactive |
| Frmpd3 (FERM and PDZ domain containing 3) | 3 | 79.6 | 109 | inactive |
| Nkx2-3 (NK2 homeobox 3) | 1 | 83.6 | 95.3 | inactive |
| Nkx2-3 (NK2 homeobox 3) | 2 | 117 | 61.7 | inactive |
| Nkx2-3 (NK2 homeobox 3) | 3 | 85.7 | 75.3 | inactive |
| Ccr7 (C-C motif chemokine receptor 7) | 1 | 118 | 90 | inactive |
| Ccr7 (C-C motif chemokine receptor 7) | 2 | 49.5 | 68.9 | inactive |
| Ccr7 (C-C motif chemokine receptor 7) | 3 | 89.7 | 83.6 | inactive |
| Rsph6a (radial spoke head 6 homolog A (Chlamydomonas)) | 1 | 108 | 67 | inactive |
| Rsph6a (radial spoke head 6 homolog A (Chlamydomonas)) | 2 | 49.2 | 72.8 | inactive |
| Rsph6a (radial spoke head 6 homolog A (Chlamydomonas)) | 3 | 61.9 | 74.1 | inactive |
| Prorsd1 (prolyl-tRNA synthetase domain containing 1) | 1 | 41.6 | 74.6 | inactive |
| Prorsd1 (prolyl-tRNA synthetase domain containing 1) | 2 | 82.6 | 47.4 | inactive |
| Prorsd1 (prolyl-tRNA synthetase domain containing 1) | 3 | 52.1 | 83.3 | inactive |

Quoted from the entries so far for reference:
| gene | reagent | GFP, % of control | viability (ATP), % of control | Call |
| --- | --- | --- | --- | --- |
| Kcnab2 | 3 | 31.7 | 41.3 | inactive |
| Sfswap (splicing factor SWAP) | 1 | 87.3 | 76.2 | inactive |
| Sfswap (splicing factor SWAP) | 2 | 78.4 | 45.6 | inactive |
| Sfswap (splicing factor SWAP) | 3 | 49.5 | 56.4 | inactive |
| Prl8a8 (prolactin family 8, subfamily a, member 81) | 1 | 81 | 82.9 | inactive |
| Prl8a8 (prolactin family 8, subfamily a, member 81) | 2 | 66.9 | 65.7 | inactive |
| Prl8a8 (prolactin family 8, subfamily a, member 81) | 3 | 51.2 | 70.9 | inactive |
| Slc38a2 | 1 | 94 | 113 | inactive |
| Slc38a2 | 2 | 125 | 81.4 | active |
| Mcub | 1 | 85.1 | 80.6 | inactive |
| Mcub | 2 | 74.3 | 63 | inactive |
